Measurements from article PMC11087087.
These are yes or no findings as the source states them, for the method shown. Binding seen in cells or lysates may run through a third protein. Some results given as binding are weak or reduced against the parent protein; the word gives no strength. Tags and fused reporters may be left off the sequences shown.

The chains behind the UniProt entries cited, without tags or fusion partners.
UniProt P31749: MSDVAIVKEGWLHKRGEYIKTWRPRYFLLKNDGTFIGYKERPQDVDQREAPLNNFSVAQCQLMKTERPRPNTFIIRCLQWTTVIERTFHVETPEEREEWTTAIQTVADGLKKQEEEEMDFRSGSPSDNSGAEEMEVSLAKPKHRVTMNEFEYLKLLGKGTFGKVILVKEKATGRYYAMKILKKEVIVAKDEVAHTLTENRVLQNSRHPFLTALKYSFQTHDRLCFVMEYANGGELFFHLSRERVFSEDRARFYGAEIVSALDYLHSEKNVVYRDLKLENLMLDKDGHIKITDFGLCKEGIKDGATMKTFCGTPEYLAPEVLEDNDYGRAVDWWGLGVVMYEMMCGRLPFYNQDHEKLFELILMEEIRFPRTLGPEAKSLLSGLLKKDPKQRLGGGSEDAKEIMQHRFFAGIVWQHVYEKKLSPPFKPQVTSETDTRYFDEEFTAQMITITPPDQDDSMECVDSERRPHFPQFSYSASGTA

Target: T1, Flag-tagged PDZK1 (UniProt Q5T2W1)
T1 sequence: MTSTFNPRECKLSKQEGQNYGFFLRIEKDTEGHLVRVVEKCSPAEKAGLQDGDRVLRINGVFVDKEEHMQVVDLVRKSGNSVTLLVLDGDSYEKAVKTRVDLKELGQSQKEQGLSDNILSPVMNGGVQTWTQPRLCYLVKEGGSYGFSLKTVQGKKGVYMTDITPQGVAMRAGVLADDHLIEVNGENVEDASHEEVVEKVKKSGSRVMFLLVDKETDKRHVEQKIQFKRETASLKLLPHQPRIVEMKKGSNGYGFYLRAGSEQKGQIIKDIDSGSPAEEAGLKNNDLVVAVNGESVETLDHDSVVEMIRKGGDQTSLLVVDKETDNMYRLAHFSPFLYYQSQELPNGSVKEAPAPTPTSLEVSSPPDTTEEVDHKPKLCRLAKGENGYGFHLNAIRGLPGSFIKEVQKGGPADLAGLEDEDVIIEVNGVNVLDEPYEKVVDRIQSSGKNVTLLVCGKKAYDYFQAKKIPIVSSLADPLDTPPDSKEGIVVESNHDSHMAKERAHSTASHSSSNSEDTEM
Assay: co-IP; U251 cells transfected with Flag-PDZK1; endogenous AKT1 detected in the co-immunoprecipitate; protocol as in ref. 19

binding: binds
Substance: endogenous AKT1 (from UniProt P31749 1-480)
